Data from PubChem BioAssay AID1794845 (National Center for Advancing Translational Sciences (NCATS), 2023).
Among all 6,900 compounds or so, fewer than 10 were called active. Calls follow the shape of the dose curve; as a rule, active = well fitted curve in the direction sought with a large enough effect; inconclusive = small, poorly fitted or top-dose-only effect, or another doubt; inactive = no such curve, though single readings can be large or run the other way. Some of the results follow.

The chains behind the UniProt entries cited, without tags or fusion partners. Where a name states a change or a piece, a line headed by the entry shows the natural chain unless it says otherwise.
UniProt C7C422: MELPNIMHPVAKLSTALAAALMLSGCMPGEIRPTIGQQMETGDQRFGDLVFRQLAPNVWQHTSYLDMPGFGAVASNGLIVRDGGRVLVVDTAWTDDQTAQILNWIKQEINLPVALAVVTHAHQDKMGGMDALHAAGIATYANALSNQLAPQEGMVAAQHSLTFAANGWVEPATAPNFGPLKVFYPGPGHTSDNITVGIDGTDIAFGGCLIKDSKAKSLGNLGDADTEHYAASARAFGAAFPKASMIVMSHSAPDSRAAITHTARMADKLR

molecular target: Metallo-beta-lactamase type 2 (Klebsiella pneumoniae) (UniProt C7C422); experiment: qHTS to identify inhibitors of the New Delhi Metallo-beta-lactamase (NDM): primary screen against the NCATS Gemini Collection; settings: NDM-1 enzyme, meropenem hydrolysis, absorbance 300 nm; at 38.4 µM (top of the series) unless noted; also: % of control where 0% means no effect
Procedure, shortened: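 Meropenem hydrolysis (50 uM final) by 2 nM NDM-1 read as 300 nm absorbance after 30 min, following >30 min compound–enzyme preincubation in HEPES pH 7.0 with 1 uM ZnSO4 and 0.01% Tween20.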

Activity % (negative = inhibition), inactive:
CCCN(C)C(=O)c1c(-c2ccc(F)cc2)noc1[C@H](C)O -10.9% [at 57.5 µM]
O=C(Nc1n[nH]c(Cc2ccccc2)n1)N1CCN(C(=O)c2ccco2)CC1 -0.879%
CC(=O)N1Cc2ccccc2CC2(CCCN2Cc2ccccn2)C1 (configuration not stated) 13.2%
O=S(=O)(c1ccc(F)cc1)N1CCC(Oc2ccc(-c3noc(C4CC4)n3)cc2)C1 (configuration not stated) -2.7%
Cc1ncoc1C(=O)N1CCC(N2CCCC(C(=O)N3CCCC3)C2)CC1 (configuration not stated) 24.7%
Cc1nn2c(c1-c1ccccc1C(C)C)N(Cc1ccc(C(=O)O)s1)CCC2 25.9% [at 57.5 µM]
COc1cc2c(cc1-c1ccc(S(C)(=O)=O)cc1)OCC(C)(C)CC2CO (configuration not stated) 9.6%
Cc1noc(C)c1-c1cc(-c2ccncc2)cn2cncc12 5.15% [at 77.1 µM]
COCc1ccc2c(c1)c(OC(C)(C)C(=O)NCC1CCOCC1)nn2Cc1ccccc1 0.585%
C[C@H]1[C@@H]2[C@@H](O)C([C@H](C)C(=O)NCc3ccc(F)cc3)CC[C@@]2(C)CC[C@@H]1NC(=O)Cc1ccccc1 (some centres not stated) -10.4%
COc1ccc(CCN2CCC(CN(C)C(=O)C3CCCCO3)CC2)cc1 (configuration not stated) -3.11%
CNc1nc2c(s1)C[C@]1(C)CCC([C@H](C)C(=O)N3CCSCC3)[C@H](O)[C@H]1[C@@H]2C (some centres not stated) -6.32% [at 57.5 µM]
O=C(c1ccccc1)N1CCCN(c2nc3ncccc3o2)CC1 19.8% [at 57.5 µM]
CCCNC(=O)N1CC(Oc2ccc(-c3nc(C)no3)cc2)C1 17%
COc1ccc(CNC(=O)C[C@@H]2O[C@H](CNCc3cccc(Cl)c3)[C@@H](O)[C@H]2O)cc1 3.73% [at 57.5 µM]
Cc1[nH]ccc1C(=O)N(CCN1CCCCC1)CC1CCCN(C2CCCC2)C1 (configuration not stated) -3.84%
CN1c2cccnc2CN(Cc2ccccc2Cl)CC[C@H]1CO 7.27% [at 57.5 µM]
CC1(C)[C@H]2CC=C(CN3CCC(CCC(=O)N4CCN(c5ccccc5)CC4)CC3)[C@@H]1C2 0.948%
COc1ccc(-n2cccn2)c(CN2CC[C@H](CO)[C@H](O)C2)c1 2.9%
COc1ccc(-c2nc3cnccn3c2NCCC(=O)N2CCCC(C)C2)cc1 (configuration not stated) 7.69%
Cc1ccc(OCC(=O)c2ccc3c(c2)N(CCCC(=O)N2CCCC2)C(=O)CO3)cc1C 2.05%
CCCn1c(C)cnc1C1CCNC1 (configuration not stated) 6.78%
CC(=O)N1CCN([C@H]2[C@@H]3OC[C@@H](O3)[C@@H](NCc3ccccc3O)[C@@H]2O)CC1 9.78% [at 57.5 µM]
Cn1cc(-c2ccc3c(n2)CN(Cc2ccc(F)cc2)C(=O)CO3)cn1 8.04% [at 57.5 µM]
O=C(NCCN1CCCCC1)[C@H]1C[C@@H](O)[C@H](O)[C@@H]2N=C(Nc3ccc4c(c3)OCO4)S[C@@H]21 -1.55%
Cc1ncnc(N2CCN(C(=O)C3CCN(C(=O)C4CC4)CC3)CC2)c1C 7.66%
CC(C)NC[C@H]1O[C@@H](CO)[C@@H](O)[C@H]1N1CCN(C)CC1 69.6% [at 57.5 µM]
Cc1cccc(C(=O)Nc2c(N3CCCCC3)c(-c3cccc(F)c3)nn2C)c1 -0.0433%
COC(=O)c1ccccc1C(=O)N1CCNC(=O)C1Cc1ccccc1 (configuration not stated) 2.16%
NC(=O)C1CCN(C(=O)[C@H]2C[C@@H](O)[C@H](O)[C@@H]3N=C(Nc4cccc(C(F)(F)F)c4)S[C@@H]32)CC1 -1.87%
CCC[C@H]1CN(C(=O)CCc2ccccc2C)C[C@@H]1N 2.84%
O=C(O)CC1C(=O)NCCN1C1Cc2ccccc2C1 (configuration not stated) -2.18%
O=C(NC1CCN(c2cc(-c3ccc(Cl)cc3)[nH]n2)C1)c1ccc(Br)o1 (configuration not stated) 1.07%
CC(=O)N1CCN(c2nc3c(s2)CC(C(=O)Nc2cc(Cl)ccc2F)CC3)CC1 (configuration not stated) 13.7%
FC(F)(F)c1ccc(CN2CCC3(CC(c4cccc(C(F)(F)F)c4)=NO3)C2)cc1 (configuration not stated) 44.2%
O=C(NCc1cccc(Cl)c1)c1cnc2c(c1)N(C(=O)Cc1ccc(O)cc1)CCC2 1.04% [at 57.5 µM]
CNc1nc(C(=O)N2CCC3(CCC(=O)N(CC4CCCO4)C3)CC2)cs1 (configuration not stated) -10.2%
Cn1cc(CN[C@H]2C[C@H]3C(=O)NC[C@@H](CCC(=O)NCc4ccccc4)N3C2)c2ccccc21 1.89%
CO[C@H]1C(=O)N(C(C)C)[C@H]1C1CCN(S(=O)(=O)c2ccc3c(c2)CCC3)CC1 -3.73%
Cc1cc(C(=O)NCC2CCCN(Cc3nnc(-c4cccnc4)o3)C2)no1 (configuration not stated) -0.307%
CN(C)Cc1cn(C[C@H]2C[C@@H](NC(=O)Nc3ccc4c(c3)OCCO4)[C@H](O)[C@@H]2O)nn1 7.24%
O=C(O)c1ccc(CC2CCN(Cc3ccccn3)C2)cc1 (configuration not stated) 18.1%
N#Cc1ccccc1CN1CCNc2nc(CNCc3ccccc3)n(Cc3ccccc3)c2C1=O 19.3%
CCn1ncc(CN2CCC3(CCC3OC)CC2)c1C (configuration not stated) -3.26%
O=C(Nc1ccc(Cl)nc1)c1ccc2ccnn2c1 42.1% [at 57.5 µM]
CN1C[C@H](O)C[C@H]1c1nnc2n1CCN(S(=O)(=O)c1ccccc1)CC2 9.86%
O=C(c1ccc(F)cc1)N1CCC(C(=O)N2CCCC(c3nc4ccncc4[nH]3)C2)CC1 (configuration not stated) 2.95%
Cc1ncccc1C(=O)N1CC[C@@H]2COCCN(Cc3ccncc3)[C@@H]2C1 13.7%
COc1ccc(Nc2ccnc(N3CCCC(C(=O)NCc4ccc(F)cc4)C3)n2)cc1 (configuration not stated) 32.4%
CN(C)C[C@@H]1CN(C)C[C@H]1NS(=O)(=O)c1ccccc1F 15.9%
CC(C)(C)n1nnnc1C1CC2(CCOCC2)C(=O)N1Cc1cccs1 (configuration not stated) 14.4%
CCc1noc(-c2ccn3c(CNC(=O)Cc4c[nH]c5ccccc45)nnc3c2)n1 2.29%
CC1(NC(=O)C2CC2)CN(Cc2nc(-c3ccccc3OCc3ccccc3)cs2)C1 3.21% [at 57.5 µM]
O=C(c1cccs1)N1CCC2(CC1)CN(C1CCC1)CC2CO (configuration not stated) -6.74%
C=CCN1CCN(C(=O)C2N(c3ccc(OC)cc3)C(=O)C23CCCCC3)CC1 (configuration not stated) 12.6%
COCCN1CC(CO)C2(CCN(C3CCC3)CC2)C1 (configuration not stated) -5.91%
NCCCC(=O)N1CCN(C2CCNCC2)C(=O)C1 -1.32%
C[C@H]1[C@@H]2[C@@H](O)C([C@H](C)C(=O)N3CCCC3)CC[C@@]2(C)CC[C@@H]1NC(=O)Nc1cccc(F)c1 (some centres not stated) -1.02%
COCCNC(=O)c1ccc(OC2CCN(Cc3ccc(OC)cc3F)CC2)c(Cl)c1 -2.86%
O=C(CCc1nnn2c1CN(C(=O)NCc1ccccc1)CC2)N1CCCC1 -2.37%
O=C(NCC(=O)N1CCN(Cc2ccccc2)CC1)c1cccc(-c2ccsc2)c1 -12.8%
O=[S+]1([O-])NC2(CCN(Cc3ccoc3)CC2)COc2ccccc21 7.13%
CCc1noc(-c2nc(Cc3cccc(F)c3)no2)n1 5.25%
CC1(C)CN(C(=O)c2ccnc(-n3cnnc3)c2)CC1(C)O (configuration not stated) 14.4%
COc1ccc(NC(=O)CCC2CCCN(C(=O)c3ccccc3SC)C2)cc1Cl (configuration not stated) 3.78%
CCN1CCN(C(=O)c2ccc3nnc(-c4cccnc4)n3c2)CC1 13.6% [at 57.5 µM]
O=C1NCCOCCN(C(=O)c2nccc3ccccc23)[C@H]2CCC[C@@H]12 47.4%
Cc1noc(C)c1CN1CCOC[C@H](O)C1 -2.93% [at 77.1 µM]
Cc1nc(C2(C)CCN(C(=O)CCc3cc(Cl)no3)CC2)no1 -8.61%
CCC[C@H]1CN(C(=O)c2ccc3c(c2)NC(=O)CN3)C[C@@H]1N 55.8%
Cn1nccc1C(=O)N1CC(c2nc(CCOCC3CCCC3)no2)C1 -2.62%
CCN(Cc1cnn(CC)c1)C(=O)C1COc2ccccc2C1 (configuration not stated) 18.4%
Cn1ccc(C(=O)N[C@@H]2COCC[C@@H]2OCc2cscn2)cc1=O 1.36%
CCOC(=O)CCNC(=O)N1CCCC(c2nc(C(C)C)no2)CCNC(=O)CC1 (configuration not stated) 5.5%
CN1CC(=O)N(C2CCCNCC2)Cc2c1ncnc2N1CCCC1CO (configuration not stated) 13.1%
Cc1ccc(NC(=O)N2CCc3c(c4ccccc4n3CC3CC3)C2)cc1 15.8%
CNC(=O)[C@@H](C1CCCCC1)N1CCC[C@H]1C(=O)NCCN1CCOCC1 21.2% [at 57.5 µM]
CCS(=O)(=O)N1CC(F)(F)C[C@H]1c1nc(-c2cccnc2)no1 -14.6%
O=C(Cc1cccs1)N1CCOc2ccc(CN3CCCCC3)cc2C1 5.06%
CN(C)C[C@H]1C[C@@H](CO)CN(C(=O)c2ccccc2-c2ccc(F)cc2)C1 -2.84%
CC(=O)N1C[C@@H](NC(=O)Nc2ccc(F)cc2F)C[C@H]1C(=O)N[C@H](Cc1c[nH]c2ccccc12)C(N)=O -10.3%
COC(=O)[C@@H]1Cc2ncn(Cc3ccc(Cl)cc3)c2CN1CCCc1ccccc1 -2.28% [at 57.5 µM]

Gathered by group: the entries above with a furan ring, fused or not (three)
Activity % (negative = inhibition), inactive:
O=C(Nc1n[nH]c(Cc2ccccc2)n1)N1CCN(C(=O)c2ccco2)CC1 -0.879%
O=C(NC1CCN(c2cc(-c3ccc(Cl)cc3)[nH]n2)C1)c1ccc(Br)o1 (configuration not stated) 1.07%
O=[S+]1([O-])NC2(CCN(Cc3ccoc3)CC2)COc2ccccc21 7.13%

An excerpt from above in order of molar mass, rising.
Activity % (negative = inhibition), inactive:
CCCN(C)C(=O)c1c(-c2ccc(F)cc2)noc1[C@H](C)O -10.9% [at 57.5 µM]
Cc1ccc(NC(=O)N2CCc3c(c4ccccc4n3CC3CC3)C2)cc1 15.8%
C[C@H]1[C@@H]2[C@@H](O)C([C@H](C)C(=O)NCc3ccc(F)cc3)CC[C@@]2(C)CC[C@@H]1NC(=O)Cc1ccccc1 (some centres not stated) -10.4%
